The text below walks through data of article PMC10688287, “RNA binding protein AUF1/HNRNPD regulates nuclear export, stability and translation of SNCA transcripts” (Open Biology, 2023).

Sequences of proteins named here, by UniProt entry; tags and fusion partners are left off.
UniProt A5YKK6: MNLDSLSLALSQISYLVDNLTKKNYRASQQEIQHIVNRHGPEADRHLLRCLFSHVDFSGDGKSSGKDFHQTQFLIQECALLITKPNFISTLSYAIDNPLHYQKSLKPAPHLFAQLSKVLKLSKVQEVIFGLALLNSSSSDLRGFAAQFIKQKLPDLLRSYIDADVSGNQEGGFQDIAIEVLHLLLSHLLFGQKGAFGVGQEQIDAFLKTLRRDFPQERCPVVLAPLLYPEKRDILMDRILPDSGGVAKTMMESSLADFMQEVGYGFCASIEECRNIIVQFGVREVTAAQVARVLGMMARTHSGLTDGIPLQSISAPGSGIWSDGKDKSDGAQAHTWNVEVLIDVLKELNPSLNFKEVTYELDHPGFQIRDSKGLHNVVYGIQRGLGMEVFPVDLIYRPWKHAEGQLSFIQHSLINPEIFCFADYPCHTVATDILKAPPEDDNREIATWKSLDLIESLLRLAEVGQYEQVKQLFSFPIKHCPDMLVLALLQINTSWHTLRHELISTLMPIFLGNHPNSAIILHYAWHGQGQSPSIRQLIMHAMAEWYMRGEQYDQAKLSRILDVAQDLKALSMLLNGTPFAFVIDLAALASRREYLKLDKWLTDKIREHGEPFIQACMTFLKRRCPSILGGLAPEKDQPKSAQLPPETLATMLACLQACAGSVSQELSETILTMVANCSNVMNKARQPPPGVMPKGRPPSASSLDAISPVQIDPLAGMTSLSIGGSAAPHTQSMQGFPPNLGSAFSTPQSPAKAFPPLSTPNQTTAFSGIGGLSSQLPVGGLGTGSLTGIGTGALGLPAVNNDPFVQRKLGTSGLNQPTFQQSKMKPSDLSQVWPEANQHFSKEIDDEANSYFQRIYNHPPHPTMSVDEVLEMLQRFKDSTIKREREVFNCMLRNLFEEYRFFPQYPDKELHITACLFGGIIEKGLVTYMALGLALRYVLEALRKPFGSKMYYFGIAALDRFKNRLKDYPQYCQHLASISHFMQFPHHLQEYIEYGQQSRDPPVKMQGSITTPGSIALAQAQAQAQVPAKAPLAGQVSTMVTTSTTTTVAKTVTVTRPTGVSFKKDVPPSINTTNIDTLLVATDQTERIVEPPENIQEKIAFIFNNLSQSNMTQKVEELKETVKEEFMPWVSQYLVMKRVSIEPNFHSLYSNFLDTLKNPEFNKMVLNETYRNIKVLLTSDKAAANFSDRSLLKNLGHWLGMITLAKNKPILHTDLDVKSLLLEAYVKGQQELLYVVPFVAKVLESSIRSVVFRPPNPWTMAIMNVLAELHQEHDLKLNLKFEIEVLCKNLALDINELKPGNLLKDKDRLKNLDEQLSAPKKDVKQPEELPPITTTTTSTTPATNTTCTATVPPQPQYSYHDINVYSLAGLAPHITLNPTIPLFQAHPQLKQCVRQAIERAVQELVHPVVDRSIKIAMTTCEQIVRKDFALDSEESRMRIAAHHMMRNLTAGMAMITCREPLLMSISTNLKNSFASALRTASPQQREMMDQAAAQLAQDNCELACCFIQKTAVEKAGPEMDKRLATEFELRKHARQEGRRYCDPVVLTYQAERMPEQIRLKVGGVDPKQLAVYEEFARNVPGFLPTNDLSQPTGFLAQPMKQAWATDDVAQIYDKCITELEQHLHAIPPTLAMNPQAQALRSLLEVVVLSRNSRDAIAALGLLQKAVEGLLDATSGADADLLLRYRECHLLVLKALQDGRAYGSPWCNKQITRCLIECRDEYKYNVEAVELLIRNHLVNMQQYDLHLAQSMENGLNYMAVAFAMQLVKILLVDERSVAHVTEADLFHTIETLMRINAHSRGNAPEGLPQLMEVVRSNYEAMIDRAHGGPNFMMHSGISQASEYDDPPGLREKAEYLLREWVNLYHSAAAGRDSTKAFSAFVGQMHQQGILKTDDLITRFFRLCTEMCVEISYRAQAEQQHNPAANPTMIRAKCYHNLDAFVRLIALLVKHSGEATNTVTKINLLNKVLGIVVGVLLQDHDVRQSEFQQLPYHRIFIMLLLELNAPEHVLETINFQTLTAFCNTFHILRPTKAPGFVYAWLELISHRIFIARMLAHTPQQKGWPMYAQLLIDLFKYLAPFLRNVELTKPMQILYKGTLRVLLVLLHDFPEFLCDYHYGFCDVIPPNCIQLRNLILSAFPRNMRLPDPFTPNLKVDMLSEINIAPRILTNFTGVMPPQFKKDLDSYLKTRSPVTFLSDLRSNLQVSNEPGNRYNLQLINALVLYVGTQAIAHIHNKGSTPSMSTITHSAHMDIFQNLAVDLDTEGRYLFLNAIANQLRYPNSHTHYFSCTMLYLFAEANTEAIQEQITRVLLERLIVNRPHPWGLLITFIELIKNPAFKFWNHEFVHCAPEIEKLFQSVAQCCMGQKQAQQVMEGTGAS
UniProt P11940: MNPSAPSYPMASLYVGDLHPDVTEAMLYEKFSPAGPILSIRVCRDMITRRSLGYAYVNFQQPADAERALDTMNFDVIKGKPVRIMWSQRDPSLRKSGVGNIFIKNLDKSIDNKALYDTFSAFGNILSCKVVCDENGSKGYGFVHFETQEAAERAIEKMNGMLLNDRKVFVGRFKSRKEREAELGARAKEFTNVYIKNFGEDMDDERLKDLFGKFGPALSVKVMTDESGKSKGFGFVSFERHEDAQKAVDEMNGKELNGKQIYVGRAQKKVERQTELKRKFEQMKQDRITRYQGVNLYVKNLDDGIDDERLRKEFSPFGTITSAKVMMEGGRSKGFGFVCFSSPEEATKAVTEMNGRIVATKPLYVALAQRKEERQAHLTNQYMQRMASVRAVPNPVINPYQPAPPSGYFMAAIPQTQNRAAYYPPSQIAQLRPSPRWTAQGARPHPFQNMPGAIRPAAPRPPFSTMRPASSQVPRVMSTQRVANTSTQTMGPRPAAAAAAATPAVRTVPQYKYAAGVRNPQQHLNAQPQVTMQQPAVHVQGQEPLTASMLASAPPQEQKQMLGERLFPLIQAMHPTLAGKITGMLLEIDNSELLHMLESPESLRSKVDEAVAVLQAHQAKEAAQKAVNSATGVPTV

No constants are given. Whether binding was seen depends on the method and setting. In cells and extracts the contact can be indirect. Some binding calls cover weakened binding; strength is not graded here.

This experiment addresses T1, CNOT1 (UniProt A5YKK6 1-2376).
T1 construct: CNOT1, scaffold subunit of the CCR4-NOT deadenylase complex; Endogenous human CNOT1 of the SK-N-SH cells is precipitated by the anti-CNOT1 antibody as well; source: SK-N-SH, transfected (CNOT1 plasmid), in lysate
Kind of experiment: co-IP; anti-CNOT1 antibody or control IgG, protein A/G magnetic beads; lysates of SK-N-SH cells 48 h after co-transfection with CNOT1 and either empty or AUF1-expressing plasmid; PLB lysis buffer (10 mM HEPES pH 7.0, 100 mM KCl, 5 mM MgCl2, 0.5% NP-40); washes in NT2 buffer with 250 mM NaCl; Western blot.

Regarding PABPC1 (from UniProt P11940 1-636), the binding entry was “binds”.
